Results published in article PMC4899155 (Molecular pharmaceutics, 2016).

Tests used:
Jurkat cells [1] = experiment: Automated patch-clamp electrophysiology for Jurkat cells; type: cell-based, human; conditions: read-out: EC50, Jurkat cell membrane currents; agonist alone, -80 mV
Jurkat cells [2] = experiment: Intracellular calcium assay; type: cell-based, human; conditions: read-out: IC50, PMA/PHA-induced increase in [Ca2+]i, Fluo-4

NCCCC(=O)O [GABA]
EC50 (Jurkat cells [1]): 0.0031 mM
IC50 (Jurkat cells [2]): 74 ± 3 mM
